Assay in all cases: anti-FLAG co-IP, LC-MS/MS
For test [1], the target named is T1, Bck1 (Saccharomyces cerevisiae) (UniProt Q01389).
T1 sequence (looked up): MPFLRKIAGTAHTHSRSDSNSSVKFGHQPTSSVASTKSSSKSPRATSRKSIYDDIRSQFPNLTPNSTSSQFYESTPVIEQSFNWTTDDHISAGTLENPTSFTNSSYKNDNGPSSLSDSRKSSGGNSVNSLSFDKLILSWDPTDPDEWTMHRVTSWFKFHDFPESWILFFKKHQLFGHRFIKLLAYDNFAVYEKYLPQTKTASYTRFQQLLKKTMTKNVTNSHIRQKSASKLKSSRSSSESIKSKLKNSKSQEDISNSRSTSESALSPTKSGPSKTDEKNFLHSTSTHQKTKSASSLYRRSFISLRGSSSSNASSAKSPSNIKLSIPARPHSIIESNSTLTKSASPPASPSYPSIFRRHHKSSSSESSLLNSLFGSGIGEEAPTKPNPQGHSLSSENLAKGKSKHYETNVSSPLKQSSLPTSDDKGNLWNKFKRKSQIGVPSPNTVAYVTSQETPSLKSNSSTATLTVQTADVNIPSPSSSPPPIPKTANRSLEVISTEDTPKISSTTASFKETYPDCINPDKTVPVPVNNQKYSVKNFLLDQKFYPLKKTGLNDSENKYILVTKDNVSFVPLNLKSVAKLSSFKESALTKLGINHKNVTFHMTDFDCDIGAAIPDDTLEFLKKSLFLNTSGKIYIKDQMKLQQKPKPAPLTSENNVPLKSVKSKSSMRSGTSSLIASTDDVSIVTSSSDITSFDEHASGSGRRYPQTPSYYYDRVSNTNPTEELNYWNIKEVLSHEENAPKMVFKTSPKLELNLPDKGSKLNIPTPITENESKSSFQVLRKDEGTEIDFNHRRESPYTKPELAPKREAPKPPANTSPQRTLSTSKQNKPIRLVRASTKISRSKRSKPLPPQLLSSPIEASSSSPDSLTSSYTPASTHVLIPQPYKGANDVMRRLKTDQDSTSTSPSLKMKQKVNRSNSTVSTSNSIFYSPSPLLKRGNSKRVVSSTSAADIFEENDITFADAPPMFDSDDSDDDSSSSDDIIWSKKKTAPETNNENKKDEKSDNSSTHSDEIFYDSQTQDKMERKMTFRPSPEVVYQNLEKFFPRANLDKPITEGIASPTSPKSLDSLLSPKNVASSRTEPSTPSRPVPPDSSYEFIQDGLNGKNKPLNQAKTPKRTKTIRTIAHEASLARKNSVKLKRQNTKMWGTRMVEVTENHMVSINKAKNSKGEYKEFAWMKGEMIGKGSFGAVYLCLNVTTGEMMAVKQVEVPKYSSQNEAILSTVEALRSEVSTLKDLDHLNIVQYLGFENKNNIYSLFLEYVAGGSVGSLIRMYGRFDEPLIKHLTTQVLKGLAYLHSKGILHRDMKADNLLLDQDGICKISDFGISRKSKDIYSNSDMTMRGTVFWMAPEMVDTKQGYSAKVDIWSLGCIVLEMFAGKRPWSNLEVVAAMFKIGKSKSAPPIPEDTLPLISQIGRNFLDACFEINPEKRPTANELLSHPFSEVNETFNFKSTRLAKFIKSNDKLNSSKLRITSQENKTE

Amino acid sequences for entries named in this document (tags omitted).
UniProt P32481: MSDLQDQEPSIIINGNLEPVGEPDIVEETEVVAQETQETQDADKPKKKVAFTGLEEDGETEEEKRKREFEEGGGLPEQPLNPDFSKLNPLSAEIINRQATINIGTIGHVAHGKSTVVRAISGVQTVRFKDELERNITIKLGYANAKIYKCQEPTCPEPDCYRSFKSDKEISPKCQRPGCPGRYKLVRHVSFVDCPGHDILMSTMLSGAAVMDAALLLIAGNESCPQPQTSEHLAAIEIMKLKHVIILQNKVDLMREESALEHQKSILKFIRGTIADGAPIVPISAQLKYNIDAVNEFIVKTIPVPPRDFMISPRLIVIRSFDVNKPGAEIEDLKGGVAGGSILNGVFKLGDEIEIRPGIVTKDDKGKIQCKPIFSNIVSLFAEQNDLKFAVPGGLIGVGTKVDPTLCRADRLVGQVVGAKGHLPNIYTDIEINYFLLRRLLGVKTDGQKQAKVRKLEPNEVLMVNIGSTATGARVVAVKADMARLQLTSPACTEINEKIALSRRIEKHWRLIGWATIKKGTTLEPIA

Test [2] addresses T2, Mkk2 (Saccharomyces cerevisiae) (UniProt P32491).
T2 sequence (looked up): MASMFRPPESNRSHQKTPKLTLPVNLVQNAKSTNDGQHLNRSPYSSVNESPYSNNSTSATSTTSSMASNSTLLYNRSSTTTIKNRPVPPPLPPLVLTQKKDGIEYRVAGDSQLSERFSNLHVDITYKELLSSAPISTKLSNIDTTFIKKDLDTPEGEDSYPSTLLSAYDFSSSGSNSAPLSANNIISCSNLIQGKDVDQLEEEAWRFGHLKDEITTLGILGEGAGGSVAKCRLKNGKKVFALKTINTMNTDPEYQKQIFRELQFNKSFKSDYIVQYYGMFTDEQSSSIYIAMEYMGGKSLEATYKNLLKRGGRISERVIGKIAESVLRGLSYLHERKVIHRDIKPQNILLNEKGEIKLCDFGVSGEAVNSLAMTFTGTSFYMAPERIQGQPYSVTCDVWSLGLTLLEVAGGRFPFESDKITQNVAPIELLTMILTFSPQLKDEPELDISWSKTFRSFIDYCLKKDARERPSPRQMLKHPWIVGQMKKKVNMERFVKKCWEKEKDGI

Test [3] addresses Gcd11 (Saccharomyces cerevisiae) (UniProt P32481).
In test [4] the target is T3, Sui3 (Saccharomyces cerevisiae) (UniProt P09064).
T3 sequence (looked up): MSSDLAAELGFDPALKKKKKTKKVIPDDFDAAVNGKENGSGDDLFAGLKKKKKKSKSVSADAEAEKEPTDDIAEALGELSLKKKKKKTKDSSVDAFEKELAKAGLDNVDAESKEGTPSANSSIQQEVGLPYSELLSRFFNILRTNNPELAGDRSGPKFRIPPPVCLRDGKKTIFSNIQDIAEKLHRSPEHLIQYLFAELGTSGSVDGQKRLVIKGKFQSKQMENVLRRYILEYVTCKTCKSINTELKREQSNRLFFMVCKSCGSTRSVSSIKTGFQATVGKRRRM

Results are given in words; binding and its absence hold for the method and conditions named. In cells and extracts the contact can be indirect. Some binding calls cover weakened binding; strength is not graded here. For some of these results: Where a sequence is shown, tags or fusion partners need not be part of it.

B1: Slt2 (protein, Saccharomyces cerevisiae, UniProt Q00772 1-484, looked up)
chain: MADKIERHTFKVFNQDFSVDKRFQLIKEIGHGAYGIVCSARFAEAAEDTTVAIKKVTNVFSKTLLCKRSLRELKLLRHFRGHKNITCLYDMDIVFYPDGSINGLYLYEELMECDMHQIIKSGQPLTDAHYQSFTYQILCGLKYIHSADVLHRDLKPGNLLVNADCQLKICDFGLARGYSENPVENSQFLTEYVATRWYRAPEIMLSYQGYTKAIDVWSAGCILAEFLGGKPIFKGKDYVNQLNQILQVLGTPPDETLRRIGSKNVQDYIHQLGFIPKVPFVNLYPNANSQALDLLEQMLAFDPQKRITVDEALEHPYLSIWHDPADEPVCSEKFEFSFESVNDMEDLKQMVIQEVQDFRLFVRQPLLEEQRQLQLQQQQQQQQQQQQQQQQPSDVDNGNAAASEENYPKQMATSNSVAPQQESFGIHSQNLPRHDADFPPRPQESMMEMRPATGNTADIPPQNDNGTLLDLEKELEFGLDRKYF
In the case of B1, the binding entry in test [1] and in test [2] was “binds” in each case.

B2: Sui2 (protein, Saccharomyces cerevisiae, UniProt P20459 1-304, looked up)
chain: MSTSHCRFYENKYPEIDDIVMVNVQQIAEMGAYVKLLEYDNIEGMILLSELSRRRIRSIQKLIRVGKNDVAVVLRVDKEKGYIDLSKRRVSSEDIIKCEEKYQKSKTVHSILRYCAEKFQIPLEELYKTIAWPLSRKFGHAYEAFKLSIIDETVWEGIEPPSKDVLDELKNYISKRLTPQAVKIRADVEVSCFSYEGIDAIKDALKSAEDMSTEQMQVKVKLVAAPLYVLTTQALDKQKGIEQLESAIEKITEVITKYGGVCNITMPPKAVTATEDAELQALLESKELDNRSDSEDDEDESDDE
For the molecule B2, the binding result in test [3] and in test [4] was “binds” throughout.

These data come from US20030162221A1.
